{
  "sequences": {"note": "By UniProt entry, the sequences of proteins in these tests, tags left out. Where a name states a change or a piece, a line headed by the entry shows the natural chain unless it says otherwise.", "UniProt P51813": "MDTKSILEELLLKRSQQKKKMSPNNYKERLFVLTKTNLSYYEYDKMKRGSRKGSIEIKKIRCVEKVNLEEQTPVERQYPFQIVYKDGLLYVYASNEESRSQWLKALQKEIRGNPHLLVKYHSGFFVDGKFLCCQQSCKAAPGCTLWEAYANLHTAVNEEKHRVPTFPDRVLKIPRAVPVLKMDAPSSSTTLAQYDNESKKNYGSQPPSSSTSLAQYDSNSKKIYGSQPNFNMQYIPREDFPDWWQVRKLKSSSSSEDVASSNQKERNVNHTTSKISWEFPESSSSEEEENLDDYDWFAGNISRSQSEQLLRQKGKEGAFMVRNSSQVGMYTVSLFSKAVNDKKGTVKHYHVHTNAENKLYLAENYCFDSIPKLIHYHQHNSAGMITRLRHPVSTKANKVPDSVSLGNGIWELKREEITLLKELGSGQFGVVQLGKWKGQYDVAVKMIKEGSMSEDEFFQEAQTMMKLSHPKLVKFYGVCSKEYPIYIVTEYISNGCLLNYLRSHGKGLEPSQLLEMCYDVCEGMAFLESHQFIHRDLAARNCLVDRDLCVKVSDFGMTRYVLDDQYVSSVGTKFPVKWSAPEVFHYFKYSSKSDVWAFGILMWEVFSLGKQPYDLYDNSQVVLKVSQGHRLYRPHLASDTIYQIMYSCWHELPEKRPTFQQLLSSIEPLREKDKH"},
  "source": "the supplement of paper PMC12823440",
  "about": "“Inhibitors supercharge kinase turnover through native proteolytic circuits” (Nature, 2025)",
  "note": "Where a name gives a salt, the structure may show the parent alone. This is one part of the list. Hit calls seldom repeat between salt and free forms of one compound.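 Kinases were expressed as nanoluciferase fusions in K562 cells and luminescence was read every 4 h between 2 and 18 h as percent of control, DMSO set to 100% and a positive control to 0%. A time point counts as decreased when the signal drops significantly (2 sigma). The hit call is the authors' own, does not follow from the count of time points alone, and its rule is not shown.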",
  "data": [
    {"target": "BMX (UniProt P51813)", "test": "number of time points (of 5) at which kinase-Nluc abundance scored as decreased, DMSO-normalised (count); higher = more persistent destabilization", "conditions": "K562; 2-18 h", "values": [
      {"smiles": "C[C@@H]1CCN(C(=O)CC#N)C[C@@H]1N(C)c1ncnc2[nH]ccc12", "note": "[Tofacitinib] (10 µM)", "number of time points": 0},
      {"smiles": "Cc1ccc(C(=O)Nc2ccc(Oc3cc4cnn(C)c4cc3-c3cn[nH]c3)c(F)c2)c(=O)n1-c1ccc(F)cc1", "note": "[Merestinib] (2.5 µM)", "number of time points": 0},
      {"smiles": "Cc1cc(Nc2ncnc3ccc(NC4=NC(C)(C)CO4)cc23)ccc1Oc1ccn2ncnc2c1", "note": "[Tucatinib (hemiethanolate)] (2.5 µM)", "number of time points": 0},
      {"smiles": "C[C@@]1(c2ncncc2F)NC(=O)c2cc(-c3cn[nH]c3)ccc21", "note": "(10 µM)", "number of time points": 0},
      {"smiles": "Cc1cc2ncc(-c3ccc(O)c(O)c3)nc2cc1C", "note": "[Tyrphostin AG1433] (10 µM)", "number of time points": 0},
      {"smiles": "C=CC(=O)Nc1cccc(Nc2nc(Nc3ccc(N4CCN(C(C)=O)CC4)cc3OC)ncc2C(F)(F)F)c1", "note": "[Rociletinib hydrobromide] (10 µM)", "number of time points": 0},
      {"smiles": "Cc1cc(Nc2ncnc3ccc(NC4=NC(C)(C)CO4)cc23)ccc1Oc1ccn2ncnc2c1", "note": "[Tucatinib] (2.5 µM)", "number of time points": 0},
      {"smiles": "CCc1cc2c(cc1N1CCC(N3CCOCC3)CC1)C(C)(C)c1[nH]c3cc(C#N)ccc3c1C2=O", "note": "[Alectinib (Hydrochloride)] (2 µM)", "number of time points": 0},
      {"smiles": "Cn1nccc1Nc1nccc(-c2ccn([C@H](CO)c3ccc(Cl)c(F)c3)c(=O)c2)n1", "note": "[Ravoxertinib hydrochloride] (10 µM)", "number of time points": 0},
      {"smiles": "COc1cc2c(N3CCN(C(=O)Nc4ccc(OC(C)C)cc4)CC3)ncnc2cc1OCCCN1CCCCC1", "note": "[Tandutinib] (10 µM)", "number of time points": 0},
      {"smiles": "C=CC(=O)Nc1cccc(Nc2nc(Nc3ccc(N4CCN(C(C)=O)CC4)cc3OC)ncc2C(F)(F)F)c1", "note": "[Rociletinib] (10 µM)", "number of time points": 0},
      {"smiles": "COc1cc(Nc2ncc(F)c(Nc3ccc4c(n3)N(COP(=O)(O)O)C(=O)C(C)(C)O4)n2)cc(OC)c1OC", "note": "[Fostamatinib Disodium] (10 µM)", "number of time points": 0},
      {"smiles": "COc1cc2c(N3CCN(C(=O)Nc4ccc(OC(C)C)cc4)CC3)ncnc2cc1OCCCN1CCCCC1", "note": "[Tandutinib (hydrochloride)] (10 µM)", "number of time points": 0},
      {"smiles": "COc1cc(Nc2ncc(F)c(Nc3ccc4c(n3)N(COP(=O)(O)O)C(=O)C(C)(C)O4)n2)cc(OC)c1OC", "note": "[Fostamatinib (disodium hexahydrate)] (10 µM)", "number of time points": 1},
      {"smiles": "COc1cc2nccc(Oc3ccc(NC(=O)NC4CC4)c(Cl)c3)c2cc1C(N)=O", "note": "[Lenvatinib (mesylate)] (10 µM)", "number of time points": 2},
      {"smiles": "Oc1ccc(Nc2nc(-c3ccc(Cl)cc3)cs2)cc1", "note": "(10 µM)", "number of time points": 0},
      {"smiles": "NC(=O)c1nc(Nc2ccccc2)sc1NC(=O)C1CCCCC1", "note": "(10 µM)", "number of time points": 0},
      {"smiles": "CC1=C(C(=O)O)N2C(=O)[C@@H](NC(=O)[C@H](N)C3=CCC=CC3)[C@H]2SC1", "note": "[Cephradine] (10 µM)", "number of time points": 0},
      {"smiles": "Cc1ccc(C(=O)Nc2ccc(Oc3cc4cnn(C)c4cc3-c3cn[nH]c3)c(F)c2)c(=O)n1-c1ccc(F)cc1", "note": "[Merestinib dihydrochloride] (2.5 µM)", "number of time points": 0},
      {"smiles": "Cc1ccc2nc(NCCN)c3ncc(C)n3c2c1", "note": "(2.5 µM)", "number of time points": 0},
      {"smiles": "CC(=O)NC1CC(n2cnc(NC(=O)Cc3ccc4ccccc4c3)c2)C1", "note": "(stereo not given) (10 µM)", "number of time points": 0},
      {"smiles": "COc1cc2nccc(Oc3ccc(NC(=O)NC4CC4)c(Cl)c3)c2cc1C(N)=O", "note": "[Lenvatinib] (10 µM)", "number of time points": 2},
      {"smiles": "Cn1cnc2c(F)c(Nc3ccc(Br)cc3Cl)c(C(=O)NOCCO)cc21", "note": "[Selumetinib (sulfate)] (10 µM)", "number of time points": 0},
      {"smiles": "CCN1CCN(Cc2ccc(Nc3ncc(F)c(-c4cc(F)c5nc(C)n(C(C)C)c5c4)n3)nc2)CC1", "note": "[Abemaciclib] (2 µM)", "number of time points": 0},
      {"smiles": "C[C@@H]1CCN(C(=O)CC#N)C[C@@H]1N(C)c1ncnc2[nH]ccc12", "note": "[Tofacitinib (citrate)] (10 µM)", "number of time points": 0},
      {"smiles": "Cn1nccc1Nc1nccc(-c2ccn([C@H](CO)c3ccc(Cl)c(F)c3)c(=O)c2)n1", "note": "[Ravoxertinib] (10 µM)", "number of time points": 0},
      {"smiles": "S=C(SSC(=S)N1CCOCC1)N1CCOCC1", "note": "(10 µM)", "number of time points": 0},
      {"smiles": "CC1CCc2c(cc(Br)c(F)c2Br)N1C=O", "note": "(stereo not given) (10 µM)", "number of time points": 0},
      {"smiles": "Cc1[nH]c(/C=C2\\C(=O)Nc3ccccc32)c(C)c1CCC(=O)O", "note": "[(Z)-Orantinib] (10 µM)", "number of time points": 0},
      {"smiles": "CCN1CCN(Cc2ccc(Nc3ncc(F)c(-c4cc(F)c5nc(C)n(C(C)C)c5c4)n3)nc2)CC1", "note": "[Abemaciclib (methanesulfonate)] (10 µM)", "number of time points": 2}
    ]}
  ]
}
